Data as given in paper PMC6716676, “Chemokine signaling links cell-cycle progression and cilia formation for left–right symmetry breaking” (PLoS Biology, 2019).

T1: Flag-Psmd4b (proteasome 26S subunit, non-ATPase 4b), expressed in HEK293T (zebrafish) (UniProt Q561Y1)
T1 sequence: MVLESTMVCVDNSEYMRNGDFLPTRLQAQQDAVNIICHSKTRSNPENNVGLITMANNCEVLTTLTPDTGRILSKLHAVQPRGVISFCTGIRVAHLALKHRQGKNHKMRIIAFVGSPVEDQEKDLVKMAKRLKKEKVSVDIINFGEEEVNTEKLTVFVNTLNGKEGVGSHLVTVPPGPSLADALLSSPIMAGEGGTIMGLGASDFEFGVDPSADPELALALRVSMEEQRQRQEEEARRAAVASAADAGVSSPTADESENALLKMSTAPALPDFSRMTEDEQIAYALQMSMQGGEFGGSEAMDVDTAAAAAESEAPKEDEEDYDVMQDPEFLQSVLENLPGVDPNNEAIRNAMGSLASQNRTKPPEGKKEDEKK

T2: Flag-zFoxj1a (zebrafish forkhead box j1a) (zebrafish) (UniProt F1QDF8)
T2 sequence: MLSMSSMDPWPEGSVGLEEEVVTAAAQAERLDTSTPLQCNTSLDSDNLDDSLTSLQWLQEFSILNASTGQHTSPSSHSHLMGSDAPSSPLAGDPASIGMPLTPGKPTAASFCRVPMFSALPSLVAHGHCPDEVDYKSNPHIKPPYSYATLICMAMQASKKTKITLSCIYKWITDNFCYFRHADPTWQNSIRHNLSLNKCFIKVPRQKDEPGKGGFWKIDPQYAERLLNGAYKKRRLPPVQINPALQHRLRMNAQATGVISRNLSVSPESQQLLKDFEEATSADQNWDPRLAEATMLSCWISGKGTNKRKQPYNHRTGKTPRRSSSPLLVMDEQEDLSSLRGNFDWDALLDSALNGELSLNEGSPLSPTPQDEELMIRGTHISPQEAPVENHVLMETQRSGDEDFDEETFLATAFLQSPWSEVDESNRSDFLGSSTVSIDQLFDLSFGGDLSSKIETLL

B1: Flag-zFoxj1a (zebrafish forkhead box j1a) (natural protein, UniProt F1QDF8 1-458, looked up)
chain: T2 sequence
notes: forkhead box j1a (Foxj1a), zebrafish; In the self-association co-IP the second copy carried an HA tag instead of Flag (HA-zFoxj1a); also called Flag-tagged zFoxj1a; wild-type zFoxj1a; source: HEK293T, transfected, in lysate

Key:
[1] = biological target: T1, Flag-Psmd4b (proteasome 26S subunit, non-ATPase 4b), expressed in HEK293T (zebrafish); test: co-IP; HEK293T cells transfected with the tagged proteins, in some panels MG132 for 5 hours prior to harvest or CDK4 / CDK4-K38M co-expressed; TNE lysis buffer, anti-Flag-agarose or protein A-Sepharose beads, 4 °C for 4 hours
[2] = biological target: T2, Flag-zFoxj1a (zebrafish forkhead box j1a) (zebrafish); test: as above
[3] = biological target: Myc-CDK4 expressed in zebrafish embryos (zebrafish); test: co-IP; lysates of bud-stage zebrafish embryos expressing the tagged partner from injected mRNA; TNE lysis buffer (10 mM Tris-HCl pH 7.5, 150 mM NaCl, 2 mM EDTA, 0.5% Nonidet P-40), 4 °C for 4 hours; endogenous zFoxj1a detected by blot

Molecule | binding [2] | other results
HA-zFoxj1a-K20R (from UniProt F1QDF8) | – | binding [1]: binds
Myc-CDK4 (cyclin-dependent kinase 4), expressed in HEK293T (zebrafish) (enzyme) | binds | –
CDK4-K38M (zebrafish) (enzyme) | no binding | –
B1 | – | binding [3]: binds

Results are given in words; binding and its absence hold for the method and conditions named. In cells and extracts the contact can be indirect. Binding can be weak; no strength is given. For some of these results: Sequences can lack the tags named with a protein.
